No constants are given. Whether binding was seen depends on the method and setting. Some results given as binding are weak or reduced against the parent protein; the word gives no strength.
Molecular target: T1, lexA-Mek1 (yeast) (UniProt P24719)
T1 sequence: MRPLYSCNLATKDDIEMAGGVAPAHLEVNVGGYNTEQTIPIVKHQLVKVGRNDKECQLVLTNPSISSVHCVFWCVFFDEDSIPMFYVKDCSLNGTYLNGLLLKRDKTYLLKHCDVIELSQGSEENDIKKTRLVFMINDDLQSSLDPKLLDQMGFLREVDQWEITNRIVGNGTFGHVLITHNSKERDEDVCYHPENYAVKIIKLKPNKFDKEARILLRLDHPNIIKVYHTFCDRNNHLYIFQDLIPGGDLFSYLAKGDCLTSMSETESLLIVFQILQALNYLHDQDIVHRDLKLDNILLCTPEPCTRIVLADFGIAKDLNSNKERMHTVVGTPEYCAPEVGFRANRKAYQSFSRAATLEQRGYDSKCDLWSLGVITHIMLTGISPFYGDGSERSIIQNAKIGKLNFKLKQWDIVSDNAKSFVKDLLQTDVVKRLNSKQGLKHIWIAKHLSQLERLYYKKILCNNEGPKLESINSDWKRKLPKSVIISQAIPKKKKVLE
Experiment: two-hybrid; directed test: lexA and GAD plasmids co-transformed into L40; ten-fold dilutions spotted on SD-Leu-Trp-His (HIS3) and beta-galactosidase filter assay (lacZ), 30°C

- binding: binds
B1: GAD-bc (domain or fragment, UniProt P38830 346-402)
chain: NSSQNSTKRKMPSMAQPLNESCLNARPSKRRSKVALGAPNSGASISPIKSRQSTPME

— paper PMC6289461, “Mek1 coordinates meiotic progression with DNA break repair by directly phosphorylating and inhibiting the yeast pachytene exit regulator Ndt80”
